Experimental data from the supplement of paper PMC12889115.
The list shows a part of the results. Values are raw readings; no control value is given beside them.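 Primary screen: polymyxin B was added at a level permeabilizing Salmonella outer membranes while sparing inner membranes. DMSO wells, both with and without polymyxin B, established maximum growth. Plate-to-plate variation meant each plate was ranked on its own, and the lowest-OD600 compounds were selected as hits.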

Test system: Salmonella enterica serovar Typhimurium SL1344
Assay: bacterial growth OD600 after 18 h with compound and polymyxin B; higher = more bacterial growth (less inhibition)
Conditions: 50 µM, Mueller-Hinton broth

SMILES | bacterial growth OD600 (polymyxin B 1 µg/mL) | bacterial growth OD600 (polymyxin B 0.75 µg/mL)
CC(Nc1ccc(C(=O)N2CCC(CN3CCCC3=O)CC2)cn1)C1CC1 (stereo unspecified) | 1.01 | 
CCO[C@H]1[C@H](NC(=O)c2cccnc2)c2ccccc2C12CCN(C(=O)c1ccc3[nH]ccc3c1)CC2 |  | 0.813
CC(C)(O)C(=O)N1CCC(n2c(C3CCCO3)nc3cc(C(F)(F)F)ccc32)CC1 (stereo unspecified) |  | 0.869
Cc1cc(C)cc(C(=O)N2CCC(C3(Cc4cccc(F)c4)NC(=O)N(CCN(C)C)C3=O)CC2)c1 (stereo unspecified) |  | 0.845
COC(=O)c1ccc(CN2CCN(Cc3ccc(OC)c(C)c3)C(CCO)C2)cc1 (stereo unspecified) | 1.04 | 
CCN(CC)C(=O)CCc1nnc(-c2ccc(C(C)=O)s2)o1 |  | 0.798
COCC(=O)Nc1cc(C(=O)NC2CCCN(Cc3ccccc3)C2)c2c(c1)nc(C1CCC1)n2C (stereo unspecified) |  | 0.813
CCOC(=O)C1(Cc2ccc(F)cc2)CCCN(C(=O)C2CCC2)C1 (stereo unspecified) | 0.857 | 
CC(=O)N1CCCN(C(=O)c2csc3nc(-c4ccccc4C)cn23)CC1 | 0.929 | 
COc1ccc(-c2n[nH]cc2CN(CC2CCC2)CC2CCCO2)c(OC)c1 (stereo unspecified) | 0.74 | 
Cc1cccc(CN2CCC(N3CCC(C(=O)NCCc4ccco4)CC3)CC2)n1 | 1 | 
CCCCN(C)C(=O)c1coc(COc2ccccc2)n1 | 0.831 | 
COc1ccc(CCNC(=O)c2cn(C3CCCCC3)cc(C(=O)NC3CC3)c2=O)cc1 |  | 0.011
O=C(c1cscn1)N1CCCC(CCc2ccc(F)cc2F)C1 (stereo unspecified) |  | 0.854
COc1ccc(CCC2CCCN(C(=O)CC(F)(F)F)C2)cc1 (stereo unspecified) |  | 0.67
Cc1nonc1CN(C)C(=O)c1csc2nc(-c3cccc(C(F)(F)F)c3)cn12 | 0.006 | 

As entered above.
Under bacterial growth OD600 (polymyxin B 1 µg/mL), CCOC(=O)C1(Cc2ccc(F)cc2)CCCN(C(=O)C2CCC2)C1 (stereo unspecified) shows 0.857
Under bacterial growth OD600 (polymyxin B 0.75 µg/mL), COc1ccc(CCNC(=O)c2cn(C3CCCCC3)cc(C(=O)NC3CC3)c2=O)cc1 shows 0.011
Under bacterial growth OD600 (polymyxin B 0.75 µg/mL), CCN(CC)C(=O)CCc1nnc(-c2ccc(C(C)=O)s2)o1 shows 0.798

Next results follow.

SMILES | bacterial growth OD600 (polymyxin B 1 µg/mL) | bacterial growth OD600 (polymyxin B 0.75 µg/mL)
O=C(COc1ncnc2ccccc12)NC1CCCN(CC2CCCCC2)C1 (stereo unspecified) | 1.17 | 
CCN1CCCC1CNC(=O)CCC1CCN(Cc2c(C)nn(C)c2Cl)CC1 (stereo unspecified) |  | 0.89
CC(C)CCC1(C2CCN(C(=O)/C=C/c3ccc(Cl)cc3)CC2)NC(=O)N(CCN(C)C)C1=O (stereo unspecified) |  | 0.004
C=CCC(=O)NC1CC(=O)N(CCc2cccc(Cl)c2)C1 (stereo unspecified) | 0.743 | 
COc1ccccc1Oc1ncccc1CNC(=O)[C@@H]1CCCN1C(C)=O | 0.931 | 
CS(=O)(=O)N1CCC2(CCCN(Cc3ccc(F)c(F)c3)C2=O)C1 (stereo unspecified) | 0.931 | 
O=C(CCc1nc2ccccc2s1)NCCN1Cc2ccccc2OC(c2ccccc2)C1 (stereo unspecified) |  | 0.765
O=C(NCc1ccon1)c1csc2nc(-c3ccccc3)cn12 | 1.08 | 
COc1cccc(N2CCN(C(=O)Cn3cc(NC(=O)CCC(=O)c4ccccc4)cn3)CC2)c1 |  | 0.786
CCCCN(C)C(=O)C1CCCN(C2CCN(C(=O)C3CC3)CC2)C1 (stereo unspecified) |  | 0.83
O=C(CC(c1ccc(O)cc1)c1cccc(O)c1)N1CCCCCCC1 (stereo unspecified) | 0.813 | 
CN1CCCCC1CCNC(=O)c1ccc(NCc2cccc(F)c2)nc1 (stereo unspecified) | 0.923 | 
Cc1oc(-c2ccc(C(F)(F)F)cc2)nc1CN1CCCCC1CCN1CCCC1=O (stereo unspecified) | 0.874 | 
O=C(CCC1(Cc2cccs2)CCC(=O)N1)NCCc1ccccc1C(F)(F)F (stereo unspecified) |  | 0.791
Cc1occc1C(=O)N1CCC2(CCCN(Cc3ccc(F)cc3)C2=O)C1 (stereo unspecified) | 0.89 | 
